The other results are listed elsewhere or left out. Shown are side measurements of this screen, not its main read-out; they come without a call. Compounds called inactive in the main read-out are mostly missing here. The note in brackets gives the kind of curve behind each potency; many fits are weak.
Assay: qHTS Assay to Find Inhibitors of Chronic Active B-Cell Receptor Signaling
Conditions: ABC-DLBCL IkBa-CBG/CBR reporter, luminescence ratio (green luciferase fused to IkBa over red control in TMD8 lymphoma cells), 4 h
Outline: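 TMD8 ABC-DLBCL cells carrying doxycycline-inducible green luciferase fused to IkappaBalpha plus unfused red luciferase were exposed to compounds (up to 46 uM) for 4 hrs at 37C. Activity came from the overlap-corrected green/red luminescence ratio.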

[1] = measured here: CBR red luminescence, cell number

Structure (SMILES) | AC50 [1] | AC50 (measured here: IkBa-CBG green luminescence)
COc1ccccc1N(CC(=O)NCCc1ccccc1)C(=O)CCC(=O)Nc1cc(C)ccn1 | 17.8 µM [falling, single point] | –
N=c1c2c(-c3ccccc3)c(-c3ccccc3)n(Cc3ccco3)c2ncn1CCO | 23.1 µM [falling, single point] | –
O=[N+]([O-])c1cccc(/C=N/Nc2cc(Cl)nc(-c3ccccc3)n2)c1 | 11.2 µM [falling, partial curve, poor fit] | –
COc1ccc(CNC(=O)COc2cc(=O)n(C)c3ccccc23)cc1 | 35.5 µM [falling, partial curve, poor fit] | –
COc1cc(/C=C/C(=O)OCC(=O)NCCC2=CCCCC2)cc(OC)c1OC | 1.84 µM [rising, partial curve] | –
Nc1nc(-c2cc3c(cc2Cl)OCCO3)cs1 | 35.5 µM [falling, single point] | –
COCCNC(=S)N(CCc1c(C)[nH]c2ccc(Cl)cc12)Cc1cccs1 | 22.4 µM [falling, single point] | –
CCCCCC(=O)Nc1ccc(S(=O)(=O)Nc2cc(OC)nc(OC)n2)cc1 | 1.58 µM [rising, partial curve, poor fit] | –
COc1ccc(C(=O)Nc2cccc(-c3cnc4ccccc4n3)c2)cc1 | 2.82 µM [falling, single point] | –
OC(CNCCC(c1ccccc1)c1ccccc1)COc1ccccc1 (stereo unspecified) | 22.4 µM [falling, partial curve, poor fit] | –
Cc1ccc(C(C)C)c(OCC(O)CN2CCc3ccccc3C2)c1 (stereo unspecified) | 28.2 µM [falling, partial curve, poor fit] | –
CC(NC(=O)NC1CCCCC1)c1ccc2c(c1)OCO2 (stereo unspecified) | 0.631 µM [rising, full curve, poor fit] | –
O=c1cc(-c2ccccc2)c2cc(Cl)ccc2[nH]1 | 35.5 µM [rising, single point] | –
O=C1NCCCC2c3c(cc(Br)c(O)c3Br)OC12N1CCCCC1 (stereo unspecified) | 16.4 µM [rising, single point] | –
CCOC(=O)CC(=O)CSc1nc(C)nc2c1oc1ccccc12 | 29.1 µM [rising, partial curve, poor fit] | –
COc1ccc(NC(=S)NCc2ccco2)c(OC)c1 | 29.1 µM [falling, single point] | –
O=C(NN=C1CCN(Cc2ccccc2)CC1)c1cc(Br)ccc1O | 2.24 µM [falling, full curve] | –
Cc1ccc(SC(C)c2nc(-c3cccnc3)no2)cc1 (stereo unspecified) | 5.8 µM [falling, partial curve, poor fit] | –
CCOc1ccccc1NC(=O)Cn1[nH]c(=O)c2ccccc2c1=O | 0.708 µM [falling, full curve] | –
CCOC(=O)c1ccc(NC(=S)NC(=O)c2nn(CC)cc2Br)cc1 | 29.1 µM [rising, single point] | –
COc1cccc(CC2(CO)CCCN(Cc3cc4ccccc4[nH]3)C2)c1 (stereo unspecified) | 22.4 µM [falling, single point] | –
O=c1c2ccccc2ncn1-c1ccc(Cl)cc1 | 20 µM [falling, single point] | –

Structure (SMILES) | AC50 [1] | AC50 (measured here: IkBa-CBG green luminescence)
CC(C)Oc1cc(O)c2c(=O)c(-c3ccc(O)cc3)coc2c1 | 9.2 µM [rising, partial curve] | –
COc1cc(C(=O)NCc2nnc(SCC(=O)Nc3cc(C)cc(C)c3)o2)cc(OC)c1OC | 3.55 µM [rising, partial curve, poor fit] | –
O=C(Nc1ccc(Cl)cc1)C1CCC(=O)N1Cc1ccccc1Cl (stereo unspecified) | 35.5 µM [falling, single point] | –
Cc1c(CCC(=O)NCCCn2ccnc2)c(=O)oc2cc3oc4c(c3cc12)CCCC4 | 6.31 µM [rising, partial curve, poor fit] | 6.31 µM [falling, partial curve, poor fit]
CN1C(C(=O)Nc2ccc(OC(F)(F)F)cc2)=CC(c2cccs2)=NS1(=O)=O | 35.5 µM [falling, partial curve, poor fit] | –
CC1Cc2nc(SCC(=O)N3CCOCC3)n(-c3ccccc3)c(=O)c2S1 (stereo unspecified) | 18.4 µM [rising, partial curve] | –
Cc1cc(OCC(=O)NCc2ccccn2)cc(C)c1Br | 8.2 µM [rising, partial curve, poor fit] | –
COc1cc2ccccc2cc1-c1nnc(COc2ccccc2)o1 | 3.66 µM [falling, full curve, poor fit] | –
Cc1c(NN=C(C#N)C#N)c(=O)n(-c2ccccc2)n1C | 3.55 µM [falling, partial curve, poor fit] | –
N/C(CC(=O)NC1CCCCC1)=N\OCC(=O)Nc1ccc(Cl)c(Cl)c1 | 35.5 µM [falling, single point] | –
C=C1c2cc(C)ccc2NC(=O)N1c1ccc(C)cc1 | 0.58 µM [rising, full curve, poor fit] | –
CC(=O)c1ccc(NC(=O)COC(=O)c2ccccc2N=Nc2ccc(N(C)C)cc2)cc1 | 29.1 µM [falling, single point] | –
Cc1nn(C)cc1/C=N/NC(=O)c1ccc2c(c1)OCO2 | 3.98 µM [falling, full curve] | –
COc1cc(C(=S)N2CCCCC2)ccc1OCC(=O)N1CCCC1 | 13 µM [rising, partial curve, poor fit] | –
O=C(N/N=C\c1ccc(-c2cccc(Cl)c2)o1)C(=O)NC1CCCC1 | 20 µM [rising, single point] | –
CCCCOc1cc(C(=O)NCCN(CC)CC)c2ccccc2n1 | 20 µM [falling, partial curve, poor fit] | –
O=C(O)c1ccccc1CSc1nnc2c(n1)[nH]c1ccccc12 | 4.47 µM [falling, full curve, poor fit] | –
COc1ccc(CNC(=O)c2cc(=O)c3c(C)cc(C)cc3o2)cc1 | 14.1 µM [falling, single point] | –
COc1ccccc1NS(=O)(=O)c1ccc(NN=C2CCCC2)c([N+](=O)[O-])c1 | 29.1 µM [falling, single point] | –
O=S(=O)(c1ccccc1)N(CC1CO1)c1cccc2ccccc12 (stereo unspecified) | 35.5 µM [falling, single point] | –
CN(CC(=O)Nc1ccccc1)CC(=O)Nc1ccccc1Cl | 17.8 µM [falling, single point] | –
COc1cccc(-c2nn(C)c3sc(C(=O)N4CCN(c5ccccn5)CC4)cc23)c1 | 29.1 µM [falling, single point] | –

Structure (SMILES) | AC50 [1] | AC50 (measured here: IkBa-CBG green luminescence)
CSCCOC(=O)c1[nH]c2c(c1C)C(=O)CC(c1ccco1)C2 (stereo unspecified) | 3.26 µM [rising, full curve, poor fit] | –
CCOC(=O)c1c(NC(N)=O)nc2n1CCC2 | 14.1 µM [falling, partial curve, poor fit] | –
CC(=O)c1cccc(NS(=O)(=O)c2ccc(N/C=C\C(=O)c3ccc(F)cc3)cc2)c1 | 7.94 µM [falling, partial curve, poor fit] | –
N=c1c2c(ncn1CCCO)Oc1c(ccc3ccccc13)C2c1ccccc1 (stereo unspecified) | 10 µM [falling, partial curve] | –
O=C(OCCCN1C(=O)c2ccccc2C1=O)c1ccco1 | 16.4 µM [rising, single point] | –
Cc1ccc(-c2nnc(-c3ccccc3)o2)cc1 | 10.3 µM [falling, partial curve, poor fit] | –
COC(=O)c1sc(NC(=O)COc2ccccc2OC)nc1C | 0.259 µM [falling, full curve, poor fit] | –
[O-][n+]1c(/C=C/c2ccccc2)ccc2ccccc21 | 3.98 µM [falling, partial curve] | –
CN(Cc1ccc(Cl)c(Cl)c1)C(=O)CN1C(=O)NC2(CCCC2)C1=O | 0.731 µM [rising, partial curve, poor fit] | –
Cc1ccc(NC(=O)COC(=O)Cc2csc(-c3cccc(F)c3)n2)cc1C | 29.1 µM [rising, single point] | –
C=CC(=O)Nc1ccc(CN2C(=O)N(c3c(Cl)c(OC)cc(OC)c3Cl)Cc3cnc(NCCCCN(CC)CC)nc32)cc1 | 16.4 µM [falling, single point] | –
N#Cc1ccc(CSc2nnc(NC(=O)c3ccc(=O)[nH]c3)s2)cc1 | 20 µM [rising, single point] | –
COc1ccc(Cn2ccnc2SCC(=O)Nc2ccccc2OC)cc1 | 5.62 µM [rising, single point] | –
COc1ccccc1C(=O)Nc1cccc(NC(=O)c2ccccc2C)c1 | 14.1 µM [falling, single point] | –
C=CCn1c(=O)c(C(=O)OCC)c(O)c2ccccc21 | 12.6 µM [falling, partial curve, poor fit] | –
COC(=O)c1ccc2nc(NC(=O)C(C)(C)C)sc2c1 | 15.8 µM [falling, partial curve] | –
COc1cccc(-c2nc(NC3CCCC3)c3ccccc3n2)c1O | 12.6 µM [falling, partial curve] | –
CN1CCN(c2ccc(-c3cc(O)c4ncccc4c3)cc2)CC1 | 29.1 µM [rising, single point] | –
Cc1ccc(CNC(=O)CN2C(=O)CSc3ccc(S(=O)(=O)N4CCC(C)CC4)cc32)cc1 | 7.94 µM [falling, partial curve] | –
CS(=O)(=O)c1ccc(Cl)c(NC(=O)COC(=O)CCN=C2NS(=O)(=O)c3ccccc32)c1 | 29.1 µM [rising, single point] | –
CCn1ncc(/C=C2/SC(=S)NC2=O)c1C | 1.64 µM [rising, full curve] | –

Copied from the list:
AC50 [1] with COc1ccc(Cn2ccnc2SCC(=O)Nc2ccccc2OC)cc1 reads 5.62 µM [rising, single point]
AC50 [1] with CSCCOC(=O)c1[nH]c2c(c1C)C(=O)CC(c1ccco1)C2 (stereo unspecified) reads 3.26 µM [rising, full curve, poor fit]
AC50 [1] with COC(=O)c1sc(NC(=O)COc2ccccc2OC)nc1C reads 0.259 µM [falling, full curve, poor fit]
